Mtb growth Cornell: 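Whole-cell assay for inhibitors of Mycobacterium tuberculosis growth, labelled Cornell in the record; the read-out is not stated. The concentration is filed as 10 mM, unlikely as a test dose, so the dose is not known. The record gives no direction; compounds strong in two other growth screens of this library score well above the rest, so higher reads as stronger inhibition. Size under these conditions: about 53,000 compounds, about 900 of them at 50% or above in at least one test.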
Mtb heat-shock: 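Assay on Mycobacterium tuberculosis, filed only as a heat shock assay from Cornell; the read-out is not stated. The concentration is filed as 10 mM, unlikely as a test dose, so the dose is not known. The record gives no direction; compounds that gave an IC50 in retests scored well above the rest, so higher reads as stronger inhibition. Size under these conditions: about 69,000 compounds, about 930 of them at 50% or above in at least one test.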

Results are given as percent effect.
The controls that fix the scale are not given in the record; negative values are as filed.
The compounds are a random part of those screened.

CCN(C1CCN(C(=O)c2cccc(Cl)c2)CC1)S(C)(=O)=O gave Mtb growth Cornell: -6.449%; Mtb heat-shock: -22.2%.
COC(=O)c1ccc(-c2cc(C(F)(F)F)cc(N(C)C)n2)cc1 gave Mtb growth Cornell: -22.51%; Mtb heat-shock: 5.248%.
CCOCC1CN(C(=O)c2ccoc2C)Cc2cnn(C)c21 (centres undefined) gave Mtb growth Cornell: -5.429%; Mtb heat-shock: -17.55%.
Cn1nc(CN2CCCC2)c2c1CN(c1cnccn1)CC2.O=C(O)C(F)(F)F.O=C(O)C(F)(F)F gave Mtb growth Cornell: -1.06%; Mtb heat-shock: -10.27%.
O=C(O)C(F)(F)F.c1csc(NCc2n[nH]c3c2CCN(CC2CC2)C3)n1 gave Mtb growth Cornell: 13.66%; Mtb heat-shock: -23.28%.
O=C(C1CNCCN1C(=O)CCc1cccnc1)N1CCOCC1 (centres undefined) gave Mtb heat-shock: 11.55%.
Cc1ccc(CN2CCC3(CC2)C(=O)N(CC(C)C)CCN3C)s1.O=C(O)C(F)(F)F.O=C(O)C(F)(F)F gave Mtb growth Cornell: -30.71%; Mtb heat-shock: -19.57%.
Cn1nc(C2CCCN(C(=O)Cc3ccsc3)C2)c2nccnc21 (centres undefined) gave Mtb growth Cornell: 5.678%; Mtb heat-shock: -21.2%.
CN1CC2(CCCN(C(=O)c3cnc4ccc(F)cc4c3O)C2)OC1=O (centres undefined) gave Mtb heat-shock: -6.559%.
CN(Cc1ccncc1)C1CC2(CCN(C(=O)c3ccnnc3)CC2)C1 gave Mtb growth Cornell: -39.97%; Mtb heat-shock: -2.199%.
O=C(O)C(F)(F)F.[H][C@@]12C[C@@H](c3nc(C)no3)O[C@]1([H])CN(Cc1cc(C)on1)C2 gave Mtb growth Cornell: 9.767%; Mtb heat-shock: -10.72%.
CCC(CC)c1cc(C(=O)N2CCN(CC(N)=O)CC2)on1 gave Mtb growth Cornell: 21.06%; Mtb heat-shock: -5.288%.
Cc1cnc(N2Cc3nccn3CC(Cn3ncccc3=O)C2)nc1.O=C(O)C(F)(F)F (centres undefined) gave Mtb growth Cornell: -16.08%; Mtb heat-shock: -35.14%.
O=C(Nc1nncs1)NC1CCCc2c1cnn2CCO (centres undefined) gave Mtb growth Cornell: -38.75%; Mtb heat-shock: -28.84%.
CNc1ncccc1C(=O)N1CCc2c(nc(N)[nH]c2=O)C1 gave Mtb growth Cornell: -12.41%; Mtb heat-shock: -8.366%.
[H][C@@]12CN(Cc3nccs3)C[C@]1([H])CN(C(=O)c1cscn1)C2 gave Mtb growth Cornell: -2.519%; Mtb heat-shock: -15.14%.
Cc1cc(NC(C)C(=O)NCC(F)(F)F)nc(-c2ccncc2)n1 (centres undefined) gave Mtb growth Cornell: 2.944%; Mtb heat-shock: 4.757%.
Cc1ccc2cc(C(=O)N3CCN(C(=O)N(C)C)CC3)ccc2n1 gave Mtb growth Cornell: -9.226%; Mtb heat-shock: 1.086%.
CCOc1ccc2[nH]c(=O)c(CN3CCN(S(N)(=O)=O)CC3)cc2c1 gave Mtb growth Cornell: 14.9%; Mtb heat-shock: -35.04%.
Cc1cnn(CC2CCCCN2CCCS(=O)(=O)N(C)C)c1 (centres undefined) gave Mtb growth Cornell: -15.27%; Mtb heat-shock: -17.16%.
O=C(O)C(F)(F)F.O=C(O)C(F)(F)F.[H][C@@]12OCCN(C(=O)c3cncc(C)c3)[C@@]1([H])CC[C@H]2OCCN(C)C gave Mtb heat-shock: -20.6%.
Cc1noc(C2(C)CCCN(C(=O)c3cccnc3)C2)n1 (centres undefined) gave Mtb growth Cornell: -46.6%; Mtb heat-shock: -17.44%.
CCOc1cccc(NC(=O)Cc2cccc(O)c2)n1 gave Mtb growth Cornell: -6.142%; Mtb heat-shock: -23.59%.
COc1ccc([C@@H]2CN(Cc3cccnc3N)C[C@H]2N(C)C)cc1 gave Mtb heat-shock: -3.152%.
CC(CC#N)N(C)Cc1ccc(F)cc1F (centres undefined) gave Mtb growth Cornell: -9.568%; Mtb heat-shock: 4.068%.
O=C(C1CC1)N1CCC2(CC1)OCCO2 gave Mtb growth Cornell: -14.17%; Mtb heat-shock: -7.14%.
Cc1c(F)cc(C(=O)NCC(F)(F)F)cc1NCC(=O)N(C)C gave Mtb growth Cornell: -6.65%; Mtb heat-shock: 27.74%.
Cc1cc(C[C@@H]2CCC[C@H]2NCc2c[nH]nc2-c2ccccc2)on1.O=C(O)CC(O)(CC(=O)O)C(=O)O gave Mtb heat-shock: -26.65%.
CN(Cc1ccccc1)CC1CC2(CO1)CN(c1nncs1)C2 (centres undefined) gave Mtb growth Cornell: -28.44%; Mtb heat-shock: -2.392%.
CS(=O)(=O)c1ccccc1NCc1ccc(Cn2ccnc2)cc1 gave Mtb growth Cornell: 26.73%; Mtb heat-shock: -11.8%.
O=C(Nc1cc(-c2ccccc2)on1)N1CC[C@H](O)C1 gave Mtb growth Cornell: -14.15%; Mtb heat-shock: -8.229%.
CCCC(=O)n1ccn(S(=O)(=O)c2ccc(C)cc2)c1=O gave Mtb growth Cornell: 23.82%; Mtb heat-shock: 18.82%.
Cc1nc(CN2CCN(Cc3ccoc3)Cc3cccnc32)cs1.O=C(O)C(F)(F)F.O=C(O)C(F)(F)F.O=C(O)C(F)(F)F gave Mtb growth Cornell: -3.677%; Mtb heat-shock: -2.861%.
CCC(=O)N1Cc2nnc(C3CCOCC3)n2C(Cc2c[nH]cn2)C1 (centres undefined) gave Mtb growth Cornell: -34.31%; Mtb heat-shock: 8.013%.
Cc1nc(N2CCCC(N3CCCC3)C2)c2cnn(C)c2n1 (centres undefined) gave Mtb growth Cornell: -24.57%; Mtb heat-shock: -40.43%.
Cc1cc(C)n(CC2CCCN2C(=O)c2cccnc2N(C)C)n1 (centres undefined) gave Mtb growth Cornell: -35.82%; Mtb heat-shock: -10.54%.
CCN1CC2(CC1=O)CN(Cc1cccs1)CCN(C(=O)C(C)C)C2 (centres undefined) gave Mtb growth Cornell: -1.009%; Mtb heat-shock: 3.387%.
O=C1CCCN1CCC1CCN(C2CCCNC2)CC1 (centres undefined) gave Mtb growth Cornell: -36.44%; Mtb heat-shock: -4.84%.
CCn1cc(NC(=O)NCc2ccc3c(c2)OCO3)cn1 gave Mtb heat-shock: -9.663%.
Cc1cc(CNC(=O)NCCC(=O)N2CCCc3ccccc32)no1 gave Mtb growth Cornell: -24.23%; Mtb heat-shock: -5.744%.
O=C(NCCOc1ccc2c(c1)OCO2)C1CC(=O)N(C2CC2)C1 (centres undefined) gave Mtb growth Cornell: -6.182%; Mtb heat-shock: -10.4%.
CC1(C)CCN(S(=O)(=O)N2CCCC(c3cccc(C(=O)O)c3)C2)CC1 (centres undefined) gave Mtb heat-shock: 15.26%.
[H][C@@]12C[C@H](C)O[C@@]1([H])CCN(C(=O)c1ccncn1)C2 gave Mtb growth Cornell: 15.23%; Mtb heat-shock: 5.328%.
COc1ccc(C2CCCN2C(=O)c2cc(C(C)C)on2)cc1 (centres undefined) gave Mtb growth Cornell: -2.755%; Mtb heat-shock: 23.83%.
CCc1nc(C2CCCN2C(=O)c2ccc3c(c2)COC3)no1 (centres undefined) gave Mtb growth Cornell: -7.252%; Mtb heat-shock: -24.84%.
CSCCCNC(=O)C(c1ccccc1C)N(C)C (centres undefined) gave Mtb growth Cornell: 37.97%; Mtb heat-shock: -5.865%.
CNC(=O)C1(CCCc2ccccn2)CN(Cc2coc(C)n2)C1 gave Mtb growth Cornell: -8.932%; Mtb heat-shock: -18.21%.
CNc1nc(CN2C[C@@H](NC(C)=O)[C@H](c3ccc(C)o3)C2)cs1 gave Mtb growth Cornell: 17.23%; Mtb heat-shock: -0.4%.

4 of the entries, repeated:

* Cc1cnn(CC2CCCCN2CCCS(=O)(=O)N(C)C)c1 (centres undefined) : Mtb growth Cornell: -15.27%; Mtb heat-shock: -17.16%
* Cc1nc(N2CCCC(N3CCCC3)C2)c2cnn(C)c2n1 (centres undefined) : Mtb growth Cornell: -24.57%; Mtb heat-shock: -40.43%
* O=C(Nc1nncs1)NC1CCCc2c1cnn2CCO (centres undefined) : Mtb growth Cornell: -38.75%; Mtb heat-shock: -28.84%
* CSCCCNC(=O)C(c1ccccc1C)N(C)C (centres undefined) : Mtb growth Cornell: 37.97%; Mtb heat-shock: -5.865%

Measurements from “University of Dundee, Small-Polar-MMV Screening Library” (2021), ChEMBL document CHEMBL3988442.